Measured values reported in PubChem BioAssay AID2685 (National Center for Advancing Translational Sciences (NCATS), 2010).
This is one part of the list. The main result of the screen is listed elsewhere. These columns were measured beside it and carry no call. The list favours compounds with an active or inconclusive main result. The note in brackets gives the kind of curve behind each potency; many fits are weak. Where a SMILES comes first, the peptide text is derived from it. The star is where a group is joined. Bz = O=C(c1ccccc1)*

Experiment: qHTS Assay for Lipid Storage Modulators in Drosophila S3 Cells;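 on cell number change: cells counted by Cell Tracker Red CMTPX staining in the red channel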
Conditions: BODIPY lipid droplet fluorescence, 18-24 h; for cell number change: measured here: cell count max response, cells fed with added oleic acid
In short: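 Laser-scanning cytometry quantifies lipid droplet accumulation (500–530 nm total intensity; droplet/cell object ratio) in oleic acid-fed (400 uM added) Drosophila S3 cells treated with a concentration series. 20 uM Triacsin C defined 100% inhibition.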

[1] = measured here: cell number channel AC50, cells fed with added oleic acid
[2] = measured here: lipid fluorescence (Fed channel) AC50, cells fed with added oleic acid

COc1ccc(-c2cn(-c3ccc(C)cc3)c(=O)n2CC(=O)Nc2ccc(OC)cc2OC)cc1
AC50 [1]: 6.51 µM [rising, single point] | AC50 [2]: 6.51 µM [rising, single point]

COCCOC(=O)c1c(C)oc2ccc(O)c(CN3CCC(C)CC3)c12
cell number change: 34.2% | AC50 [1]: 5.17 µM [rising, full curve]

Cc1ccc(C(=O)N2CCN(c3ccc(Cl)cc3)CC2)cc1
cell number change: -0.0729% | AC50 [2]: 10.3 µM [rising, partial curve]

CCCC(=O)Nc1cccc2c1CCCC2
cell number change: -1.63%

COc1ccc(C(=O)NC2CC2)cc1OC1CCN(C(C)CSC)CC1 (configuration not stated)
AC50 [2]: 3.66 µM [falling, partial curve]

CO/N=C/c1ccc(N2CCN(C(=O)c3cccc(Cl)c3)CC2)c([N+](=O)[O-])c1
cell number change: -69.8% | AC50 [2]: 0.146 µM [falling, full curve, poor fit]

CCC1CCCCN1CCCNC(=O)C1CCC(Cn2c(=O)[nH]c3ccccc3c2=O)CC1 (configuration not stated)
cell number change: 2.41% | AC50 [2]: 1.64 µM [rising, partial curve]

Cc1cc(C)nc(Nc2nc(C)c3cc4c(cc3n2)OCO4)n1
AC50 [1]: 6.51 µM [rising, partial curve, poor fit] | AC50 [2]: 1.16 µM [rising, partial curve]

Cc1nc2ccc(NC(=O)N3CCSCC3)cc2nc1C
cell number change: 5.07% | AC50 [2]: 1.46 µM [rising, full curve]

O=C(Nc1ccc(Cl)cc1)Nc1ccccc1NS(=O)(=O)c1cccs1
cell number change: -29.2% | AC50 [2]: 1.03 µM [falling, full curve]

CCc1cc(C(=O)N2CCN(c3ncccn3)CC2)sc1C
cell number change: 0.803% | AC50 [1]: 1.46 µM [rising, single point]

CCOc1ccc2[nH]c(O)c(NC(C)=O)c2c1
cell number change: 9.41% | AC50 [2]: 6.51 µM [rising, single point]

O=C(NC(Cc1ccccc1)C(=O)NC(Cc1ccccc1)C(=O)O)c1ccccc1 (stereo not drawn) (Bz-Phe-Phe-OH; configuration not given here)
cell number change: 34.9%

COC(=O)c1ccc2c(c1)NC(=O)C(N1CCOCC1)S2 (configuration not stated)
cell number change: 7.15%

COc1ccc(N2CC(NS(=O)(=O)c3cccnc3)CC2=O)cc1OC (configuration not stated)
AC50 [2]: 0.116 µM [rising, full curve, poor fit]

CC(C)(C)C(=O)Nc1ccccc1C(=O)NCCC(=O)Nc1ccccc1
cell number change: -28.9% | AC50 [2]: 11.6 µM [falling, partial curve]

N#Cc1nc(-c2ccccc2)oc1N1CCC(C(N)=O)CC1
cell number change: 15.3% | AC50 [2]: 1.64 µM [falling, partial curve]

Cc1c(-c2ccccc2)oc2c(C(=O)OCC(=O)Nc3ccc(C(N)=O)cc3)cccc2c1=O
AC50 [2]: 2.91 µM [rising, single point]

c1cc2c3c(cccc3c1)C(N1CCOCC1)=N2
cell number change: 5.66% | AC50 [2]: 20.6 µM [rising, single point]

COc1ccc(-n2c(SCC(=O)Nc3ccc(C(=O)O)cc3)nnc2-c2cccs2)cc1
cell number change: -5.84% | AC50 [1]: 0.103 µM [falling, full curve, poor fit]

O=C(NCCN1CCNC1=O)C1CCC(=O)N(CCc2ccc(Cl)cc2)C1 (configuration not stated)
cell number change: 28.5% | AC50 [2]: 29.1 µM [rising, single point]

Cc1cc(CNC(=O)c2cccc(OC3CCN(S(=O)(=O)N(C)C)CC3)c2)on1
cell number change: -14.8% | AC50 [2]: 29.1 µM [falling, single point]

CCN1CCN(C(=O)CN(CC)S(=O)(=O)c2ccc(F)cc2)CC1
AC50 [1]: 4.11 µM [falling, single point]

Cc1ccccc1COC(=O)c1cc([N+](=O)[O-])ccc1N1CCOCC1
cell number change: -2.89%

COc1ccccc1OCC(=O)OCC(=O)Nc1ncc(Cl)cc1Cl
cell number change: 12.1% | AC50 [2]: 0.13 µM [falling, full curve, poor fit]

CCOc1ccc(/C=C/C(=O)c2ccccc2)cc1OC
cell number change: 23% | AC50 [1]: 2.06 µM [rising, partial curve] | AC50 [2]: 3.66 µM [rising, partial curve]

O=C(O)C(C/C(=N/O)c1ccc(Br)cc1)P(=O)(c1ccccc1)c1ccccc1 (configuration not stated)
cell number change: -8.81%

CCN(CCn1cccn1)Cc1nc(-c2ccccc2)no1
cell number change: 8.5% | AC50 [2]: 23.1 µM [rising, single point]

CC(=O)Nc1ccc2nc(-c3ccc(Br)o3)[nH]c2c1
cell number change: -8.71% | AC50 [2]: 32.6 µM [falling, single point]

O=C(O)c1cc(S(=O)(=O)Nc2ccc(OCc3ccccc3)cc2)ccc1Br
cell number change: 22.2%

CCN(CC)CCn1c(NC(=O)c2ccc(C(F)(F)F)cc2)nc2ccccc21
cell number change: 0.34% | AC50 [1]: 6.51 µM [falling, single point]

Cc1cc(NC(=O)CCN2CCN(C/C=C/c3ccccc3)CC2)ccc1Br
cell number change: -6.2%

CCOC(=O)C(C)Oc1c(Br)cc(C2NC(=O)NC(C)=C2C(C)=O)cc1OCC (configuration not stated)
AC50 [2]: 6.51 µM [rising, single point]

CCOC(=O)N1CCN(C(=O)CSc2nc3c(cnn3-c3ccccc3)c(=O)[nH]2)CC1
cell number change: 26.1% | AC50 [1]: 0.0146 µM [rising, full curve, poor fit] | AC50 [2]: 0.146 µM [rising, full curve, poor fit]

O=C(NNC(=O)c1ccc(Br)s1)c1cccc(Cl)c1
cell number change: -1.82% | AC50 [2]: 9.2 µM [rising, partial curve]

Cc1ccccc1-c1noc(CNC(=O)c2ccco2)n1
cell number change: 23.9% | AC50 [2]: 0.231 µM [rising, full curve, poor fit]

Cc1cc2c(cc1C)C(c1ccccc1Br)CC(=O)N2 (configuration not stated)
cell number change: -2.87% | AC50 [2]: 1.03 µM [rising, partial curve]

O=C1CC(O)(c2ccccc2)C(c2ccccc2)=C1c1ccccc1 (configuration not stated)
cell number change: -45.3% | AC50 [1]: 20.6 µM [falling, single point] | AC50 [2]: 23.1 µM [falling, single point]

CCCCN(CCCC)CCCNC(=O)CC1Oc2ccc(C)cc2NC1=O (configuration not stated)
AC50 [2]: 25.9 µM [falling, partial curve]

O=C(OCC#CCSc1nnc(-c2ccc(Br)cc2)o1)c1ccco1
cell number change: 34.8% | AC50 [1]: 10.3 µM [rising, partial curve] | AC50 [2]: 14.6 µM [rising, partial curve]

Cc1ccc(-c2nc(CS(=O)(=O)CC(=O)NCCN3CCCC3)c(C)o2)cc1
cell number change: -6.85% | AC50 [2]: 2.59 µM [rising, full curve, poor fit]

Cc1nn(Cc2ccc(Cl)cc2Cl)c(C)c1NC(=O)NC12CC3CC(CC(C3)C1)C2
cell number change: -41.6% | AC50 [1]: 0.82 µM [falling, full curve] | AC50 [2]: 29.1 µM [falling, single point]

CCOC(=O)C1CCCN(c2c(Nc3cccc(C)c3)c(=O)c2=O)C1 (configuration not stated)
cell number change: 32.1% | AC50 [1]: 6.51 µM [rising, single point] | AC50 [2]: 6.51 µM [rising, single point]

Cc1ccc(CN2CCC(CNS(=O)(=O)c3ccc(-c4ccc(=O)[nH]n4)s3)CC2)cc1
cell number change: -7.08% | AC50 [2]: 29.1 µM [falling, single point]

Cc1cccc(N2CCN(C(=O)C3CCN(c4ncnc5c4nc4n5CCCCC4)CC3)CC2)c1C
AC50 [2]: 1.84 µM [falling, full curve]

CCN1C(=O)CC(N2CCN(c3ccc(C(=O)c4ccccc4)cc3)CC2)C1=O (configuration not stated)
cell number change: -79.9% | AC50 [1]: 0.259 µM [falling, partial curve, poor fit] | AC50 [2]: 32.6 µM [falling, single point]

CCCOC(=O)Nc1nc2ccccc2o1
cell number change: 7.36% | AC50 [2]: 0.0731 µM [falling, full curve, poor fit]

COC(=O)c1cc(S(=O)(=O)N2CCOCC2)ccc1Sc1ccccc1N
cell number change: -27.4%

O=C(CSc1nnc(-c2ccco2)n1CC1CCCO1)c1ccc(F)cc1 (configuration not stated)
cell number change: -10% | AC50 [1]: 0.731 µM [falling, full curve, poor fit]

CC(C#N)Sc1ccc(S(=O)(=O)N(C)C2CCCCC2)cn1 (configuration not stated)
cell number change: -12.2% | AC50 [2]: 6.51 µM [falling, partial curve]

CCN(CC)C(=O)CC1(c2ccccc2OC)CCOC(C(C)C)C1 (configuration not stated)
cell number change: 5.16%

COc1ccc(OC)c(NC(=O)COC(=O)/C=C/c2ccc(Cl)cc2)c1
cell number change: 4.56% | AC50 [2]: 18.4 µM [falling, partial curve, poor fit]

COC(=O)c1[nH]c2ccc(F)cc2c1NS(=O)(=O)c1ccc(OC)cc1
cell number change: 3.38% | AC50 [2]: 8.2 µM [rising, partial curve]

CC1CC1C(=O)OCC(=O)c1c(N)n(C)c(=O)n(C)c1=O (configuration not stated)
cell number change: 57.3% | AC50 [1]: 29.1 µM [rising, single point] | AC50 [2]: 29.1 µM [rising, partial curve, poor fit]

CN(C)C(=O)COc1ncnc2scc(-c3ccc(F)cc3)c12
cell number change: 39.4% | AC50 [2]: 0.00461 µM [rising, full curve, poor fit]

Cc1ccc(/C=C/C(=O)N2CCN(Cc3ccccc3)CC2)o1
cell number change: -56.7% | AC50 [1]: 20.6 µM [falling, partial curve, poor fit] | AC50 [2]: 0.92 µM [falling, full curve]

CCc1ccccc1N(CC(=O)NC(C)c1ccccc1)S(C)(=O)=O (configuration not stated)
cell number change: 13.2%

CC(C)c1ccc(Nc2nc(NCc3ccco3)nc(N3CCOCC3)n2)cc1
cell number change: -28.9% | AC50 [2]: 6.51 µM [falling, single point]

CN1/C(=C/C(=O)C2CCC2)Sc2ccccc21
cell number change: 12.2% | AC50 [2]: 0.259 µM [rising, full curve]

NC(=O)C1(N2CCCCC2)CCN(C(=S)Nc2ccc(Cl)cc2)CC1
AC50 [1]: 1.84 µM [rising, partial curve] | AC50 [2]: 6.51 µM [rising, single point]
